Taken from: PubChem BioAssay AID652272 (Drosophila RNAi Screening Center, 2013)
Purpose: 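Genome-wide knock-down search for components of Hedgehog signalling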 (primary screen). Cell system: Drosophila clone 8 (Cl8) cells. Reagent: long dsRNA against Drosophila genes. Measurement: 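Plate reader light from a firefly reporter under a ptc promoter fragment that responds to Hedgehog, with Renilla light as transfection reference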. Scale: firefly Hh reporter signal: higher = more ptc reporter light; Renilla reference signal: higher = more Renilla control light. Active means: 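Hit when the z-score averaged over two replicates is under -2 or over +3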. Meaning of the calls: active = hit: reporter lowered or raised; inactive = not a hit.
In all, the deposit lists about 21,000 reagents; shown is an unselected part of those that have a named target and a result. Over the whole deposit, 503 (2.4%) are marked active. 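Raw plate light values, not normalised; calls rest on replicate z-scores that were not deposited; hits include reporter decreases as well as increases.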 Entries without a mark were called inactive. The numbers tell different reagents against one gene apart. A plus sign joins genes that one reagent is predicted to hit. Not given: the amount of reagent, the time to read-out.

CG15824 | firefly Hh reporter signal, replicate 1: 1.67e5; firefly Hh reporter signal, replicate 2: 1.08e5; Renilla reference signal, replicate 1: 3632; Renilla reference signal, replicate 2: 2756
CG42700 #1 | firefly Hh reporter signal, replicate 1: 21462 (active); firefly Hh reporter signal, replicate 2: 6502; Renilla reference signal, replicate 1: 946; Renilla reference signal, replicate 2: 800
CG42700 #2 | firefly Hh reporter signal, replicate 1: 97808; firefly Hh reporter signal, replicate 2: 37533; Renilla reference signal, replicate 1: 2412; Renilla reference signal, replicate 2: 3194
CG12128 + CG1407 | firefly Hh reporter signal, replicate 1: 80523; firefly Hh reporter signal, replicate 2: 97812; Renilla reference signal, replicate 1: 3825; Renilla reference signal, replicate 2: 4108
robl22E | firefly Hh reporter signal, replicate 1: 1.41e5; firefly Hh reporter signal, replicate 2: 1.26e5; Renilla reference signal, replicate 1: 3242; Renilla reference signal, replicate 2: 3009
msk (moleskin) | firefly Hh reporter signal, replicate 1: 1.16e5; firefly Hh reporter signal, replicate 2: 73464; Renilla reference signal, replicate 1: 5648; Renilla reference signal, replicate 2: 3360
CG13282 | firefly Hh reporter signal, replicate 1: 84055; firefly Hh reporter signal, replicate 2: 50551; Renilla reference signal, replicate 1: 2508; Renilla reference signal, replicate 2: 5143
inaF-B + inaF-D + inaF-C + 1 more | firefly Hh reporter signal, replicate 1: 70275; firefly Hh reporter signal, replicate 2: 1.46e5; Renilla reference signal, replicate 1: 1201; Renilla reference signal, replicate 2: 6848
CG4995 | firefly Hh reporter signal, replicate 1: 1.67e5; firefly Hh reporter signal, replicate 2: 80499; Renilla reference signal, replicate 1: 6371; Renilla reference signal, replicate 2: 3533
cup | firefly Hh reporter signal, replicate 1: 1.01e5; firefly Hh reporter signal, replicate 2: 77386; Renilla reference signal, replicate 1: 3706; Renilla reference signal, replicate 2: 2560
thoc5 | firefly Hh reporter signal, replicate 1: 1.03e5; firefly Hh reporter signal, replicate 2: 72723; Renilla reference signal, replicate 1: 4756; Renilla reference signal, replicate 2: 3077
goe (gone early) | firefly Hh reporter signal, replicate 1: 79936; firefly Hh reporter signal, replicate 2: 1.96e5; Renilla reference signal, replicate 1: 2115; Renilla reference signal, replicate 2: 8197
CG6195 | firefly Hh reporter signal, replicate 1: 5.79e5; firefly Hh reporter signal, replicate 2: 1.13e5; Renilla reference signal, replicate 1: 28853; Renilla reference signal, replicate 2: 3024
CG15263 | firefly Hh reporter signal, replicate 1: 1.58e5; firefly Hh reporter signal, replicate 2: 90586; Renilla reference signal, replicate 1: 3973; Renilla reference signal, replicate 2: 7188
Mip (Myoinhibiting peptide precursor) | firefly Hh reporter signal, replicate 1: 48105; firefly Hh reporter signal, replicate 2: 55403; Renilla reference signal, replicate 1: 2017; Renilla reference signal, replicate 2: 2467

The list goes on, starting with the last 2 of the part before.
CG15263 | firefly Hh reporter signal, replicate 1: 1.58e5; firefly Hh reporter signal, replicate 2: 90586; Renilla reference signal, replicate 1: 3973; Renilla reference signal, replicate 2: 7188
Mip (Myoinhibiting peptide precursor) | firefly Hh reporter signal, replicate 1: 48105; firefly Hh reporter signal, replicate 2: 55403; Renilla reference signal, replicate 1: 2017; Renilla reference signal, replicate 2: 2467
CG30376 | firefly Hh reporter signal, replicate 1: 79733; firefly Hh reporter signal, replicate 2: 1.85e5; Renilla reference signal, replicate 1: 2219; Renilla reference signal, replicate 2: 8304
Cyp311a1 (Cytochrome P450 311a1) | firefly Hh reporter signal, replicate 1: 1.07e5; firefly Hh reporter signal, replicate 2: 4.01e5; Renilla reference signal, replicate 1: 3213; Renilla reference signal, replicate 2: 14085
Dhit (Double hit) | firefly Hh reporter signal, replicate 1: 1.33e5; firefly Hh reporter signal, replicate 2: 1.03e5; Renilla reference signal, replicate 1: 4898; Renilla reference signal, replicate 2: 4242
Rac1 | firefly Hh reporter signal, replicate 1: 63875; firefly Hh reporter signal, replicate 2: 36277; Renilla reference signal, replicate 1: 2467; Renilla reference signal, replicate 2: 3248
Dp (DP transcription factor) | firefly Hh reporter signal, replicate 1: 74784; firefly Hh reporter signal, replicate 2: 64242; Renilla reference signal, replicate 1: 4935; Renilla reference signal, replicate 2: 3848
CG31633 | firefly Hh reporter signal, replicate 1: 1.22e5; firefly Hh reporter signal, replicate 2: 87520; Renilla reference signal, replicate 1: 3293; Renilla reference signal, replicate 2: 8435
CG34129 | firefly Hh reporter signal, replicate 1: 5.57e5; firefly Hh reporter signal, replicate 2: 97866; Renilla reference signal, replicate 1: 34977; Renilla reference signal, replicate 2: 1840
mbc (myoblast city) | firefly Hh reporter signal, replicate 1: 5.36e5; firefly Hh reporter signal, replicate 2: 86387; Renilla reference signal, replicate 1: 27415; Renilla reference signal, replicate 2: 3206
Poc1 (Proteome of centrioles 1) | firefly Hh reporter signal, replicate 1: 76469; firefly Hh reporter signal, replicate 2: 82204; Renilla reference signal, replicate 1: 3990; Renilla reference signal, replicate 2: 3425
GstE5 (Glutathione S transferase E5) | firefly Hh reporter signal, replicate 1: 1.46e5; firefly Hh reporter signal, replicate 2: 85251; Renilla reference signal, replicate 1: 4180; Renilla reference signal, replicate 2: 6419
yellow-b | firefly Hh reporter signal, replicate 1: 66597; firefly Hh reporter signal, replicate 2: 46205; Renilla reference signal, replicate 1: 2679; Renilla reference signal, replicate 2: 2320
trem (trade embargo) | firefly Hh reporter signal, replicate 1: 5.95e5; firefly Hh reporter signal, replicate 2: 1.20e5; Renilla reference signal, replicate 1: 30134; Renilla reference signal, replicate 2: 3133
